Source: PubChem BioAssay AID686943 (Drosophila RNAi Screening Center, 2013)
The deposit covers about 23,000 reagents; shown is an unselected part of those with a known target gene and a result. 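Extra replicates exist only for a retested subset of genes; insulin dose and duration not given; both raised and lowered dpERK matter.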 Reagents against one gene are numbered here. Not stated in the record: the amount of reagent, the time to read-out.

Aim: 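Knockdowns that increase or decrease active ERK after insulin receptor stimulation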 (primary screen)
System: Drosophila S2R+ haemocyte-like cells expressing YFP-tagged ERK (Rolled)
Reagents: long dsRNA against Drosophila genes
Challenge: insulin stimulation versus unstimulated cells; dose and duration not given
Read-out: 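Antibody staining for doubly phosphorylated ERK divided by ERK-YFP signal, as plate z-scores, in insulin-treated and untreated cells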
Scale: replicate 1, z-score of dpERK with insulin and replicate 2, z-score of dpERK with insulin: higher = more active ERK per ERK-YFP after insulin; replicate 1, z-score of dpERK under basal conditions: higher = more basal active ERK per ERK-YFP; replicate 1, z-score of ERK-YFP with insulin: higher = more YFP-tagged ERK signal

target | dsRNA no. | replicate 1, z-score of dpERK with insulin | replicate 2, z-score of dpERK with insulin | replicate 1, z-score of dpERK under basal conditions | replicate 1, z-score of ERK-YFP with insulin
gbb (GeneID 37778) | 1 | 0.14 | 0.86 | 0.87 | -0.31
Ir94g (GeneID 42768) | 1 | 1.08 | -0.4 | 1.33 | 0.63
CG33203 (GeneID 43414) | 1 | -1.78 | -0.21 | -0.19 | 1.15
CG33203 (GeneID 43414) | 2 | 1.36 | -0.11 | -0.77 | 0.6
CG33203 (GeneID 43414) | 3 | 0.68 | -0.04 | – | -0.26
Axn (GeneID 43565) | 1 | -1.54 | -2.86 | 0.66 | 0.07
CG6700 (GeneID 34496) | 1 | -0.08 | -0.26 | 0.33 | -0.86
Rheb (GeneID 117332) | 1 | 2.47 | 2.38 | -0.59 | -0.81
CG3708 (GeneID 31039) | 1 | 0.89 | 0.35 | 0.64 | -0.12
Usp14 (GeneID 34387) | 1 | 0.8 | -0.01 | 0.49 | 0.85
Cyp317a1 (GeneID 36667) | 1 | 0.18 | 0.26 | -0.12 | -0.42
CG5597 (GeneID 37789) | 1 | 0.43 | -0.3 | 0.35 | 0.37
apt (GeneID 37734) | 1 | -3.41 | -4.47 | -0.43 | 2.27
CG17944 (GeneID 40885) | 1 | -1.73 | -2.15 | 0.61 | 0.97
CG12420 (GeneID 41249) | 1 | 1.12 | 0.5 | 0.01 | -0.1
CG32109 (GeneID 39444) | 1 | -0.1 | -0.44 | 0.16 | 1.01
Cdk2 (GeneID 42453) | 1 | -0.71 | -2.8 | -0.31 | -1.85
SmydA-6 (GeneID 36917) | 1 | 0.4 | 0.63 | -0.05 | 0.28
Regnase-1 (GeneID 42394) | 1 | -0.11 | 0.42 | -0.73 | -0.04
Sirt2 (GeneID 42414) | 1 | 0.74 | 0.6 | 0.38 | 0.39
Uba4 (GeneID 34187) | 1 | 1.38 | 0.04 | 0.12 | -0.42
CG17239 (GeneID 59224) | 1 | -0.85 | -0.5 | 0.1 | 0.86
btv (GeneID 35073) | 1 | -0.31 | -1.37 | -0.38 | -0.44
btv (GeneID 35073) | 2 | -0.14 | 0.23 | -0.99 | 0.59
